Values from PubChem BioAssay AID1259308 (NCATS, 2017)

Purpose: 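Candidate targets for better recombinant protein yield in mammalian cells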 (primary screen)
Cell system: human HEK293 embryonic kidney cells stably expressing firefly luciferase (HEK-CMV-Luc2-Hygro)
Reagents: single siRNA against human genes, 0.8 pmol siRNA per well
Timing: 72 h
Detection: 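Luciferase light (ONE-Glo) measured on one replicate plate set and viability (CellTiter-Glo) on the other, scaled to a negative control siRNA, with robust z-scores and luciferase per cell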
Direction: total luciferase, z-score: higher = more reporter protein produced
Active means: 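An siRNA counts as active if its total luciferase robust z-score exceeds 3; genes with two or more such siRNAs out of three were retested with fresh siRNAs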
Meaning of the calls: active = raised luciferase; inactive = no rise
Here is an unselected part of about 59,000 deposited reagents. About 1,510 of them (2.6%) were called active. 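Calls use total luciferase alone and ignore viability, so some active siRNAs may act by altering cell number.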 The numbers tell different reagents against one gene apart. Not all columns of the deposit are shown. No sequences are given here.

target gene | reagent | total luciferase, z-score | outcome
SLC26A4 (GeneID 5172) | 1 | 0.954 | inactive
SLC26A4 (GeneID 5172) | 2 | 1.5 | inactive
SLC26A4 (GeneID 5172) | 3 | -0.0149 | inactive
PBRM1 (GeneID 55193) | 1 | 0.161 | inactive
PBRM1 (GeneID 55193) | 2 | 0.0971 | inactive
PBRM1 (GeneID 55193) | 3 | -0.17 | inactive
FRMD4A (GeneID 55691) | 1 | 0.0423 | inactive
FRMD4A (GeneID 55691) | 2 | -0.168 | inactive
FRMD4A (GeneID 55691) | 3 | 0.152 | inactive

Ordered by “total luciferase, z-score” (low to high): 3 of the entries above
target gene | reagent | total luciferase, z-score | outcome
FRMD4A (GeneID 55691) | 2 | -0.168 | inactive
FRMD4A (GeneID 55691) | 1 | 0.0423 | inactive
FRMD4A (GeneID 55691) | 3 | 0.152 | inactive

The list goes on.
target gene | reagent | total luciferase, z-score | outcome
SEPTIN2 (GeneID 4735) | 1 | -1.67 | inactive
SEPTIN2 (GeneID 4735) | 2 | 0.135 | inactive
SEPTIN2 (GeneID 4735) | 3 | 0.203 | inactive
SLC25A26 (GeneID 115286) | 1 | 0.00176 | inactive
SLC25A26 (GeneID 115286) | 2 | -0.206 | inactive
SLC25A26 (GeneID 115286) | 3 | -0.223 | inactive
LOC645100 (retired record) (GeneID 645100) | 1 | 0.209 | inactive
LOC645100 (retired record) (GeneID 645100) | 2 | -0.0479 | inactive
LOC645100 (retired record) (GeneID 645100) | 3 | -0.429 | inactive
BMP2K (GeneID 55589) | 1 | -1.08 | inactive
BMP2K (GeneID 55589) | 2 | -0.188 | inactive
BMP2K (GeneID 55589) | 3 | -0.432 | inactive
RALGAPA1 (GeneID 253959) | 1 | -0.0466 | inactive
RALGAPA1 (GeneID 253959) | 2 | -0.525 | inactive
RALGAPA1 (GeneID 253959) | 3 | 0.974 | inactive
